Earlier results on 1 molecule are cited in PMC4359537, “Pharmacological characterisation of murine α4β1δ GABAA receptors expressed in Xenopus oocytes” (BMC Neuroscience, 2015).

pEC50: −log10 of the molar value.

For orientation: pEC50 means the EC50 on a negative log10 scale, so that one unit is a factor of ten.

The target in data set [1] is α4β1δ receptor. Particulars: read-out: GABA potency (EC50); rat receptor in Xenopus oocytes; cited from earlier work.
Data set [2] deals with human α4β1δ receptor. The note with it: read-out: GABA potency (EC50); human receptor in Xenopus oocytes; cited from earlier work.

As to `NCCCC(=O)O` [GABA, γ-Aminobutyric acid], the pEC50 was 5.69 in data set [1] and 7.62 in data set [2].
